Results taken from patent US12029715B2, “Precursor compounds for providing retinoids of the vitamin A5 pathway and uses thereof” (UNIVERSITY OF DEBRECEN, priority 2015, dated 2024).

Test: HPLC-MS-MS determination of endogenous retinoid levels in mouse serum, liver and brain
[1] = young wild-type non-vitamin A supplemented mice

Structure (SMILES)	endogenous concentration in brain [1] [ng/g]	endogenous concentration in liver [1] [ng/mg]	endogenous concentration in serum [1] [ng/mL]	endogenous concentration in brain (WT mice) [ng/g]	endogenous concentration in brain, molar (WT mice) [nM]	endogenous concentration in liver (WT mice) [ng/g]	endogenous concentration in liver, molar (WT mice) [nM]	endogenous concentration in serum (WT mice) [ng/mL]	endogenous concentration in serum, molar (WT mice) [nM]
CC1=C(/C=C/C(C)=C/C=C/C(C)CC(=O)O)C(C)(C)CCC1 (stereo not drawn) [ATDHRA, all-trans-13,14-dihydroretinoic acid, reference compound]	38	352	96						
CC(C=CC1=C(C)CCCC1(C)C)=CC=CC(C)CC(=O)O (stereo not drawn) [9CDHRA, 9-cis-13,14-dihydroretinoic acid]				7 ± 1	~20	135 ± 12	~700	118 ± 15	~400
